These results are taken from publication PMC5389439.

Amino acid sequences for entries named in this document (tags omitted).
UniProt Q62296: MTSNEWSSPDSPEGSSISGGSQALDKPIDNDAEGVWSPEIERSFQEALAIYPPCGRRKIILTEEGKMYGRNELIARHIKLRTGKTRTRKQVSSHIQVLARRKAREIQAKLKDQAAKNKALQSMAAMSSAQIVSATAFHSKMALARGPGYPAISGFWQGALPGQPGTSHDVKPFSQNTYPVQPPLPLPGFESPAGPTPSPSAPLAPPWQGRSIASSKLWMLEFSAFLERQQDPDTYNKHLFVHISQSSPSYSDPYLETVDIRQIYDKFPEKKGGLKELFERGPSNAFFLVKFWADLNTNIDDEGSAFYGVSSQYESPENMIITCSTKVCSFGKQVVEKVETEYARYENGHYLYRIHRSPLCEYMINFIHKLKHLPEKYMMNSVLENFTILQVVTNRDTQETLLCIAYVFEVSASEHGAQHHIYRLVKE
UniProt Q08943: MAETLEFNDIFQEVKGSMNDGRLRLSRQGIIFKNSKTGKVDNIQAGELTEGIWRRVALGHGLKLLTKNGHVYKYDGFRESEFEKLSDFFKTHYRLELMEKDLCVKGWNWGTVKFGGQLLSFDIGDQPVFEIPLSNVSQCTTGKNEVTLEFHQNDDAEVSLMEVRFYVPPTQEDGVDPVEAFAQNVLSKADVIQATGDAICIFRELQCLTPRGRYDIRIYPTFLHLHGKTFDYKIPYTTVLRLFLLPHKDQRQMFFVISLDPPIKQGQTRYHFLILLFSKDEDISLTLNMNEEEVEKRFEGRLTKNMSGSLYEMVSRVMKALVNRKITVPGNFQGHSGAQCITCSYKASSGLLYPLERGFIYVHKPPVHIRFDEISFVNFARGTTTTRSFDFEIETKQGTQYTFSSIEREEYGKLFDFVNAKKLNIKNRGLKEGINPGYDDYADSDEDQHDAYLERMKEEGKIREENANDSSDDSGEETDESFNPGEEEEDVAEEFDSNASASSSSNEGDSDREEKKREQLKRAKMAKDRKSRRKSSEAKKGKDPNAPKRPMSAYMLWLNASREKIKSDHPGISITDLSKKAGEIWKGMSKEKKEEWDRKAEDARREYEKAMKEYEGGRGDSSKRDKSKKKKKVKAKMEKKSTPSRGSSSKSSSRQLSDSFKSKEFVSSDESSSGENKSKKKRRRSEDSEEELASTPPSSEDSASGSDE
UniProt P46938: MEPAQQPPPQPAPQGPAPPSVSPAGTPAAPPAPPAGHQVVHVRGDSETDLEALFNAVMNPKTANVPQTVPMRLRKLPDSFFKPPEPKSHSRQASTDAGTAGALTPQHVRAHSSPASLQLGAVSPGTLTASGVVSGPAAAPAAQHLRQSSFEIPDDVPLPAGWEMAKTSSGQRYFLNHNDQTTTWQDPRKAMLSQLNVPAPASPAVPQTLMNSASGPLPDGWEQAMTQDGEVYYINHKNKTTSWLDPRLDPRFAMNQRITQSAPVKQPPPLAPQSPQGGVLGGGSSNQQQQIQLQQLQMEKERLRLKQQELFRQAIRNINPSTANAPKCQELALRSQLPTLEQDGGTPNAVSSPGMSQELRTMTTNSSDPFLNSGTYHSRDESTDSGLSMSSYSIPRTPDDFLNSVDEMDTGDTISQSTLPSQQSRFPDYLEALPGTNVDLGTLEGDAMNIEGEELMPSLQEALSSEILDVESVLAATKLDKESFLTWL

Results are given in words; binding and its absence hold for the method and conditions named. In cells and extracts the contact can be indirect. Some entries that bind do so weakly or less than the wild type. For part of these data: Tags and fused reporters may be left off the sequences shown.

Assay [1] has as its target Tead4, endogenous in mouse E3.5 embryos (mouse (endogenous in E3.5 embryos)) (UniProt Q62296). Nature of the assay: proximity ligation; Duolink in situ PLA on fixed E3.5 mouse embryos with antibodies against the endogenous proteins; anti-Tead4 alone as control.
The next assay has as its target Myc-mSsrp1 (mouse) (UniProt Q08943). Nature of the assay: co-IP; tagged proteins co-expressed in 293T cells; lysis buffer 10 mM HEPES pH 7.6, 250 mM NaCl, 0.1% NP40, 5 mM EDTA; IP with tag antibody and protein-G PLUS-agarose, 30 min at 4 °C; blot with tag antibodies; with or without co-expressed HA-Yap or Myc-NICD1.

For the molecule “Yap, endogenous in mouse E3.5 embryos (from UniProt P46938 1-488)”, in assay [1], the binding entry was “binds”.

B1: Sbno1 (Strawberry Notch 1), endogenous in mouse E3.5 embryos (protein, UniProt Q689Z5 1-1390)
chain: MVEPGQDLLLAALSESGISPNDLFDVDGGDAGLATPTPPSVQQSVPLSALELGLETEAAVPVKQEPEPMSTPALLNVRQPPSTTTFVLNQINQLPTLGSTIVMTKTPPATTNRQTITLTKFIQTTANTRPSVSAPAVRNAMPAAPSKDQVQLKDLLKNNSLNELMKLKPPANIAQPVATAATDVSNGAVKKESSNKEVARIWINDMKMRSFSPTMKVPVVKEEDEPEEEDEEEMGHAETYAEYMPIKLKIGLRHPDAVVETSSLSSVTPPDVWYKTSISEETIDNGWLSALQLEAVTYAAQQHETFLPNGDRAGFLIGDGAGVGKGRTIAGIIYENYLLSRKRALWFSVSNDLKYDAERDLRDIGAKNILVHSLNKFKYGKISSKHNGSVKKGVIFATYSSLIGESQSGGKYKTRLKQLLHWCGDDFDGVIVFDECHKAKNLCPVGSSKPTKTGLAVLELQNKLPKARVVYASATGASEPRNMAYMNRLGIWGEGTPFREFSDFIQAVERRGVGAMEIVAMDMKLRGMYIARQLSFTGVTFKIEEVLLSQSYVKMYNKAVKLWVIARERFQQAADLIDAEQRMKKSMWGQFWSAHQRFFKYLCIASKVKRVVQLAREEIKNGKCVVIGLQSTGEARTLEALEEGGGELNDFVSTAKGVLQSLIEKHFPAPDRKKLYSLLGIDLTAPSNNSSPRDSPCKENKIKKRKGEEITREAKKARKVGGLTGSSSDDSGSESVSDNDESDYESSKNMSSGDDDDFNPFRDESSEDNEDDPWLIRKDHKKSKDKKKKKSIDPDSIQSALLASGLGSKRPSFSSAPVISPASNSAPANSNSNSNSSLVTSQDAVERAQQMKKDLLDKLEKLAEDLPPNTLDELIDELGGPENVAEMTGRKGRVVSNDDGSISYESRSELDVPVEILNITEKQRFMDGDKNIAIISEAASSGISLQADRRAKNQRRRVHMTLELPWSADRAIQQFGRTHRSNQVTAPEYVFLISELAGEQRFASIVAKRLEGLGALTHGDRRATESRDLSRFNFDNKYGRNALEIVMKSIVNLDSPMVSPPPDYPGEFFKDVRQGLIGVGLINVEDRSGILTLDKDYNNIGKFLNRILGMEVHQQNALFQYFADTLTAVVQNAKKSGRYDMGILDLGSGDEKVRKSDVKKFLTPGYSTSGHVELYTISVERGMSWEEATKIWAELTGPDDGFYLSLQIRNNKKTAILVKEVNPKKKLFLIYRPNTGKQLKLEIYADLKKKYKKVVSDDALVHWLDQYNSSADTCTHAYWRGNCKKASLGLVCEIGLRCRTYYVLCGSVLSVWTKVEGVLASVSGTNVKMQIVRLRTEDGQRIVGLIIPANCVSPLVNLLSTSDQSQQLAVQQKQLWQQHHPQSITNLSNL
In the case of B1, the binding entry in assay [1] is listed as “binds”.

B2: GFP-SBNO1 (human Strawberry Notch 1, GFP-tagged) (protein, UniProt A3KN83 1-1393)
chain: MVEPGQDLLLAALSESGISPNDLFDIDGGDAGLATPMPTPSVQQSVPLSALELGLETEAAVPVKQEPETVPTPALLNVRQQPPSTTTFVLNQINHLPPLGSTIVMTKTPPVTTNRQTITLTKFIQTTASTRPSVSAPTVRNAMTSAPSKDQVQLKDLLKNNSLNELMKLKPPANIAQPVATAATDVSNGTVKKESSNKEGARMWINDMKMRSFSPTMKVPVVKEDDEPEEEDEEEMGHAETYAEYMPIKLKIGLRHPDAVVETSSLSSVTPPDVWYKTSISEETIDNGWLSALQLEAITYAAQQHETFLPNGDRAGFLIGDGAGVGKGRTIAGIIYENYLLSRKRALWFSVSNDLKYDAERDLRDIGAKNILVHSLNKFKYGKISSKHNGSVKKGVIFATYSSLIGESQSGGKYKTRLKQLLHWCGDDFDGVIVFDECHKAKNLCPVGSSKPTKTGLAVLELQNKLPKARVVYASATGASEPRNMAYMNRLGIWGEGTPFREFSDFIQAVERRGVGAMEIVAMDMKLRGMYIARQLSFTGVTFKIEEVLLSQSYVKMYNKAVKLWVIARERFQQAADLIDAEQRMKKSMWGQFWSAHQRFFKYLCIASKVKRVVQLAREEIKNGKCVVIGLQSTGEARTLEALEEGGGELNDFVSTAKGVLQSLIEKHFPAPDRKKLYSLLGIDLTAPSNNSSPRDSPCKENKIKKRKGEEITREAKKARKVGGLTGSSSDDSGSESDASDNEESDYESSKNMSSGDDDDFNPFLDESNEDDENDPWLIRKDHKKNKEKKKKKSIDPDSIQSALLASGLGSKRPSFSSTPVISPAPNSTPANSNTNSNSSLITSQDAVERAQQMKKDLLDKLEKLAEDLPPNTLDELIDELGGPENVAEMTGRKGRVVSNDDGSISYESRSELDVPVEILNITEKQRFMDGDKNIAIISEAASSGISLQADRRAKNQRRRVHMTLELPWSADRAIQQFGRTHRSNQVTAPEYVFLISELAGEQRFASIVAKRLESLGALTHGDRRATESRDLSRFNFDNKYGRNALEIVMKSIVNLDSPMVSPPPDYPGEFFKDVRQGLIGVGLINVEDRSGILTLDKDYNNIGKFLNRILGMEVHQQNALFQYFADTLTAVVQNAKKNGRYDMGILDLGSGDEKVRKSDVKKFLTPGYSTSGHVELYTISVERGMSWEEATKIWAELTGPDDGFYLSLQIRNNKKTAILVKEVNPKKKLFLVYRPNTGKQLKLEIYADLKKKYKKVVSDDALMHWLDQYNSSADTCTHAYWRGNCKKASLGLVCEIGLRCRTYYVLCGSVLSVWTKVEGVLASVSGTNVKMQIVRLRTEDGQRIVGLIIPANCVSPLVNLLSTSDQSQQLAVQQKQLWQQHHPQSITNLSNA
Turning to B2, the binding result with Myc-mSsrp1 (mouse) is given as “binds”.
